According to the supplement of paper PMC7661543:
± gives the standard deviation of the averaged measurements. The effect of the compound repeats well; differences between the knockouts mostly do not.

Test system: SKBR3
Experiment: relative cell number vs DMSO control (72 h) (% of DMSO); higher = less growth inhibition (more cells)
Method: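 QMAP-Seq: a pool of 5 breast cancer cell lines (ZR-75-1, SKBR3, HCC-38, MDA-MB-231, BT-20), each carrying 12 doxycycline-inducible Cas9 sgRNA perturbations (11 knockouts plus non-targeting sgNT), was treated with compounds for 72 h at four 10-fold doses (10 nM-10 uM or 1 nM-1 uM range). Barcodes were amplified and sequenced, and cell number was interpolated from 293T spike-in standard curves. The result is expressed as % of the median of DMSO wells. Two biological replicates.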

[1] = sgRNA knockout: sgATF3, 1000 nM
[2] = sgRNA knockout: sgATF3, 10000 nM
[3] = sgRNA knockout: sgATF4, 1000 nM
[4] = sgRNA knockout: sgATF4, 10000 nM
[5] = sgRNA knockout: sgATF6, 1000 nM
[6] = sgRNA knockout: sgATF6, 10000 nM
[7] = sgRNA knockout: sgATG7, 1000 nM
[8] = sgRNA knockout: sgATG7, 10000 nM
[9] = sgRNA knockout: sgERN1, 1000 nM
[10] = sgRNA knockout: sgERN1, 10000 nM
[11] = sgRNA knockout: sgHSF1, 1000 nM
[12] = sgRNA knockout: sgHSF1, 10000 nM
[13] = sgRNA knockout: sgHSF2, 1000 nM
[14] = sgRNA knockout: sgHSF2, 10000 nM
[15] = sgRNA knockout: sgKEAP1, 100 nM
[16] = sgRNA knockout: sgKEAP1, 1000 nM
[17] = sgRNA knockout: sgKEAP1, 10000 nM
[18] = sgRNA knockout: sgNFE2L2, 10 nM
[19] = sgRNA knockout: sgNFE2L2, 100 nM
[20] = sgRNA knockout: sgNFE2L2, 1000 nM
[21] = sgRNA knockout: sgNFE2L2, 10000 nM
[22] = sgRNA knockout: sgSLC35F2, 10 nM
[23] = sgRNA knockout: sgSLC35F2, 100 nM
[24] = sgRNA knockout: sgSLC35F2, 1000 nM
[25] = sgRNA knockout: sgSLC35F2, 10000 nM
[26] = sgRNA knockout: sgXBP1, 1000 nM
[27] = sgRNA knockout: sgXBP1, 10000 nM

Compound: Cn1c(CCCC(=O)O)nc2cc(N(CCCl)CCCl)ccc21 [Bendamustine]
- relative cell number (sgRNA knockout: sgATF3, 10 nM): 98.4 ± 8.5
- relative cell number (sgRNA knockout: sgATF3, 100 nM): 104 ± 26
- relative cell number [1]: 114 ± 13
- relative cell number [2]: 129 ± 11
- relative cell number (sgRNA knockout: sgATF4, 10 nM): 93.7 ± 1.1
- relative cell number (sgRNA knockout: sgATF4, 100 nM): 97 ± 3
- relative cell number [3]: 100 ± 9.9
- relative cell number [4]: 99.1 ± 7.2
- relative cell number (sgRNA knockout: sgATF6, 10 nM): 71.3 ± 12
- relative cell number (sgRNA knockout: sgATF6, 100 nM): 98.9 ± 13
- relative cell number [5]: 90.7 ± 9.8
- relative cell number [6]: 92.2 ± 18
- relative cell number (sgRNA knockout: sgATG7, 10 nM): 114 ± 16
- relative cell number (sgRNA knockout: sgATG7, 100 nM): 108 ± 33
- relative cell number [7]: 111 ± 3.3
- relative cell number [8]: 130 ± 13
- relative cell number (sgRNA knockout: sgERN1, 10 nM): 98.7 ± 6.5
- relative cell number (sgRNA knockout: sgERN1, 100 nM): 98.4 ± 19
- relative cell number [9]: 108 ± 33
- relative cell number [10]: 124 ± 34
- relative cell number (sgRNA knockout: sgHSF1, 10 nM): 102 ± 2.1
- relative cell number (sgRNA knockout: sgHSF1, 100 nM): 100 ± 10
- relative cell number [11]: 81.4 ± 15
- relative cell number [12]: 95.8 ± 26
- relative cell number (sgRNA knockout: sgHSF2, 10 nM): 97.9 ± 7.9
- relative cell number (sgRNA knockout: sgHSF2, 100 nM): 104 ± 23
- relative cell number [13]: 79.4 ± 14
- relative cell number [14]: 83.6 ± 17
- relative cell number (sgRNA knockout: sgKEAP1, 10 nM): 83.5 ± 6.2
- relative cell number [15]: 106.17 ± 0.095
- relative cell number [16]: 107 ± 10
- relative cell number [17]: 86.9 ± 7.1
- relative cell number [18]: 91.7 ± 8.4
- relative cell number [19]: 118 ± 3.3
- relative cell number [20]: 105 ± 18
- relative cell number [21]: 97.4 ± 27
- relative cell number [22]: 101 ± 16
- relative cell number [23]: 107 ± 7.5
- relative cell number [24]: 99.9 ± 37
- relative cell number [25]: 99.5 ± 15
- relative cell number (sgRNA knockout: sgXBP1, 10 nM): 94.1 ± 9.6
- relative cell number (sgRNA knockout: sgXBP1, 100 nM): 131 ± 12
- relative cell number [26]: 105 ± 24
- relative cell number [27]: 122 ± 24

Compound: CC[C@]1(O)C[C@H]2CN(CCc3c([nH]c4ccccc34)[C@@](C(=O)OC)(c3cc4c(cc3OC)N(C=O)[C@H]3[C@@](O)(C(=O)OC)[C@H](OC(C)=O)[C@]5(CC)C=CCN6CC[C@]43[C@@H]65)C2)C1 [Vincristine]
- relative cell number (sgRNA knockout: sgATF3, 10 nM): 11.5 ± 3
- relative cell number (sgRNA knockout: sgATF3, 100 nM): 12.6 ± 0.31
- relative cell number [1]: 10.2 ± 1.1
- relative cell number [2]: 7.67 ± 5
- relative cell number (sgRNA knockout: sgATF4, 10 nM): 9.5 ± 2.2
- relative cell number (sgRNA knockout: sgATF4, 100 nM): 8.24 ± 1.4
- relative cell number [3]: 8.36 ± 4.2
- relative cell number [4]: 14.7 ± 1.6
- relative cell number (sgRNA knockout: sgATF6, 10 nM): 6.76 ± 4
- relative cell number (sgRNA knockout: sgATF6, 100 nM): 4.61 ± 0.053
- relative cell number [5]: 12.1 ± 6.4
- relative cell number [6]: 6.32 ± 0.83
- relative cell number (sgRNA knockout: sgATG7, 10 nM): 13 ± 4.6
- relative cell number (sgRNA knockout: sgATG7, 100 nM): 8.34 ± 3.7
- relative cell number [7]: 14.9 ± 8.8
- relative cell number [8]: 7.38 ± 6.2
- relative cell number (sgRNA knockout: sgERN1, 10 nM): 7.71 ± 1.8
- relative cell number (sgRNA knockout: sgERN1, 100 nM): 8.34 ± 4.8
- relative cell number [9]: 7 ± 3.9
- relative cell number [10]: 7.92 ± 0.79
- relative cell number (sgRNA knockout: sgHSF1, 10 nM): 9.18 ± 1.7
- relative cell number (sgRNA knockout: sgHSF1, 100 nM): 7.64 ± 0.36
- relative cell number [11]: 6.48 ± 1.9
- relative cell number [12]: 12.3 ± 6.5
- relative cell number (sgRNA knockout: sgHSF2, 10 nM): 12.3 ± 3.8
- relative cell number (sgRNA knockout: sgHSF2, 100 nM): 8.62 ± 1.7
- relative cell number [13]: 12.1 ± 1.5
- relative cell number [14]: 11.1 ± 2.8
- relative cell number (sgRNA knockout: sgKEAP1, 10 nM): 9.64 ± 1.3
- relative cell number [15]: 4.15 ± 0.16
- relative cell number [16]: 9.51 ± 5.7
- relative cell number [17]: 11 ± 0.61
- relative cell number [18]: 14.3 ± 5.2
- relative cell number [19]: 5.77 ± 1.1
- relative cell number [20]: 9.16 ± 5.9
- relative cell number [21]: 8.42 ± 5.2
- relative cell number [22]: 10 ± 1.3
- relative cell number [23]: 7.36 ± 5
- relative cell number [24]: 4.12 ± 1.8
- relative cell number [25]: 8.24 ± 2.9
- relative cell number (sgRNA knockout: sgXBP1, 10 nM): 8.39 ± 1.2
- relative cell number (sgRNA knockout: sgXBP1, 100 nM): 9.24 ± 9.2
- relative cell number [26]: 8.71 ± 0.62
- relative cell number [27]: 7.54 ± 5.4

Compound: COc1cc([C@@H]2c3cc4c(cc3[C@@H](O[C@@H]3O[C@@H]5CO[C@@H](C)O[C@H]5[C@H](O)[C@H]3O)[C@H]3COC(=O)[C@H]23)OCO4)cc(OC)c1O [Etoposide]
- relative cell number (sgRNA knockout: sgATF3, 10 nM): 71.8 ± 20
- relative cell number (sgRNA knockout: sgATF3, 100 nM): 68.6 ± 9.6
- relative cell number [1]: 26 ± 2.1
- relative cell number [2]: 18.1 ± 2.3
- relative cell number (sgRNA knockout: sgATF4, 10 nM): 55.8 ± 1.8
- relative cell number (sgRNA knockout: sgATF4, 100 nM): 69.6 ± 7.3
- relative cell number [3]: 26.6 ± 8.4
- relative cell number [4]: 14.3 ± 0.34
- relative cell number (sgRNA knockout: sgATF6, 10 nM): 61 ± 0.97
- relative cell number (sgRNA knockout: sgATF6, 100 nM): 63.7 ± 6.1
- relative cell number [5]: 30.1 ± 7
- relative cell number [6]: 8.206 ± 0.039
- relative cell number (sgRNA knockout: sgATG7, 10 nM): 72.77 ± 0.62
- relative cell number (sgRNA knockout: sgATG7, 100 nM): 61.8 ± 10
- relative cell number [7]: 25 ± 5.8
- relative cell number [8]: 15.2 ± 6.2
- relative cell number (sgRNA knockout: sgERN1, 10 nM): 59.7 ± 6.5
- relative cell number (sgRNA knockout: sgERN1, 100 nM): 75.3 ± 21
- relative cell number [9]: 23.9 ± 7.2
- relative cell number [10]: 8.42 ± 4.7
- relative cell number (sgRNA knockout: sgHSF1, 10 nM): 54.6 ± 2.2
- relative cell number (sgRNA knockout: sgHSF1, 100 nM): 68.3 ± 3.2
- relative cell number [11]: 27.8 ± 11
- relative cell number [12]: 9.83 ± 0.27
- relative cell number (sgRNA knockout: sgHSF2, 10 nM): 56.1 ± 19
- relative cell number (sgRNA knockout: sgHSF2, 100 nM): 74.3 ± 10
- relative cell number [13]: 37.1 ± 18
- relative cell number [14]: 15.2 ± 2.1
- relative cell number (sgRNA knockout: sgKEAP1, 10 nM): 58.7 ± 8.3
- relative cell number [15]: 69.1 ± 9.7
- relative cell number [16]: 20.5 ± 1.2
- relative cell number [17]: 11.6 ± 2
- relative cell number [18]: 59.1 ± 21
- relative cell number [19]: 65 ± 14
- relative cell number [20]: 26.5 ± 8.1
- relative cell number [21]: 11.6 ± 0.32
- relative cell number [22]: 68.4 ± 14
- relative cell number [23]: 74.3 ± 9.8
- relative cell number [24]: 32.9 ± 1.2
- relative cell number [25]: 10.11 ± 0.056
- relative cell number (sgRNA knockout: sgXBP1, 10 nM): 39.6 ± 17
- relative cell number (sgRNA knockout: sgXBP1, 100 nM): 62.8 ± 6.3
- relative cell number [26]: 28.9 ± 17
- relative cell number [27]: 13.1 ± 3.8
